The supplement of paper PMC10849652
The other results are listed elsewhere or left out.

Chains of the proteins cited; added tags and fusions are not shown. Lines headed by an entry give the natural chain unless they say otherwise; changes in a name come on top.
UniProt O95379: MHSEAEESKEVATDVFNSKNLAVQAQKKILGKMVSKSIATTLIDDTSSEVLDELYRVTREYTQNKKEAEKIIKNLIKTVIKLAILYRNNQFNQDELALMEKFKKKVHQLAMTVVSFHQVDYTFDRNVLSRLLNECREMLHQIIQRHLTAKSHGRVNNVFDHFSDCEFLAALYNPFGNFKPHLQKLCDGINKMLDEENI
UniProt Q9NS93: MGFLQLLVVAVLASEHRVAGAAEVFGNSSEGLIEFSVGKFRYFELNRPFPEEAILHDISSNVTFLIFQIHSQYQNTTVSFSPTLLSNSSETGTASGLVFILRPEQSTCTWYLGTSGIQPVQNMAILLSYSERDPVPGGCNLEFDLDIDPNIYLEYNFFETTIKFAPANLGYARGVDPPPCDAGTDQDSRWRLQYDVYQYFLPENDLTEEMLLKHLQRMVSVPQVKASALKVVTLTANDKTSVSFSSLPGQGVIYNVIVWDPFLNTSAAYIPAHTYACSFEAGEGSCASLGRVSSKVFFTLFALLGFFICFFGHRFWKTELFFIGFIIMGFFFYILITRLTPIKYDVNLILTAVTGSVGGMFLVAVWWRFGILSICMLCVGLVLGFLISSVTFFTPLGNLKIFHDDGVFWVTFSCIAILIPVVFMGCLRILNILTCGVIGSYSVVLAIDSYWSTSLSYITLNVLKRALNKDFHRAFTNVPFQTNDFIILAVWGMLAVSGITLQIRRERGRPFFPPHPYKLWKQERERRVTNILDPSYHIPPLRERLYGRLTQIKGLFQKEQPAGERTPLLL
UniProt O00206, whole entry, looked up: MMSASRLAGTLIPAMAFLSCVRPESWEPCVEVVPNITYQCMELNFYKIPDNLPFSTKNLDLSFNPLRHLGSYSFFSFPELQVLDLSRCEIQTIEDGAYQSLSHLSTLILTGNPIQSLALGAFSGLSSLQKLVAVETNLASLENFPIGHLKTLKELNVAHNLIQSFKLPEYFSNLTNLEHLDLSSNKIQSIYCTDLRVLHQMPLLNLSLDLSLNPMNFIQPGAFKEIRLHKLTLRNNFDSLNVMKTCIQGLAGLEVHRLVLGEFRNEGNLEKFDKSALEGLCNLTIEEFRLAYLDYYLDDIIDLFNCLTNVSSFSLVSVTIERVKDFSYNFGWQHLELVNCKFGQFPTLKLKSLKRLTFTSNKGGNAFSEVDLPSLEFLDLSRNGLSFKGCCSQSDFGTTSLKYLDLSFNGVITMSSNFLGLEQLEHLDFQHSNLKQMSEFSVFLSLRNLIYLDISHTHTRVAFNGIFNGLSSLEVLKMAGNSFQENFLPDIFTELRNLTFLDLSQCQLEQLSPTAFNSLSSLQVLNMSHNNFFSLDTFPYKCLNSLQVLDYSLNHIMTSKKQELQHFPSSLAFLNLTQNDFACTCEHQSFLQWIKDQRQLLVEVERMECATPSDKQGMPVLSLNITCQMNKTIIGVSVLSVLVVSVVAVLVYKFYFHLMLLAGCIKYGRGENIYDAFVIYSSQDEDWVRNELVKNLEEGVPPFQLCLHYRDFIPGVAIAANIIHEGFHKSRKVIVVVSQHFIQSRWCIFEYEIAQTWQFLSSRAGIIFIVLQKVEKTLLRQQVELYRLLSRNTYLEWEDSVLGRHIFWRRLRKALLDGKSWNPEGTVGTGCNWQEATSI
UniProt Q9NUM4, whole entry, looked up: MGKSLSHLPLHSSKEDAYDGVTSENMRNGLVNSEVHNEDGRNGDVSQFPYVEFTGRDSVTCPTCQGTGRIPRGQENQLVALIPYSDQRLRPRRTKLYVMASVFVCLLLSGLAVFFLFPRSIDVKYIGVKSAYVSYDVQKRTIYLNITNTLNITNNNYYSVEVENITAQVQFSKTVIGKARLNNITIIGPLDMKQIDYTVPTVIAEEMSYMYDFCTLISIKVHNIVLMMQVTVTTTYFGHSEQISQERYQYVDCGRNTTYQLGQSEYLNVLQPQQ
UniProt Q86WV6: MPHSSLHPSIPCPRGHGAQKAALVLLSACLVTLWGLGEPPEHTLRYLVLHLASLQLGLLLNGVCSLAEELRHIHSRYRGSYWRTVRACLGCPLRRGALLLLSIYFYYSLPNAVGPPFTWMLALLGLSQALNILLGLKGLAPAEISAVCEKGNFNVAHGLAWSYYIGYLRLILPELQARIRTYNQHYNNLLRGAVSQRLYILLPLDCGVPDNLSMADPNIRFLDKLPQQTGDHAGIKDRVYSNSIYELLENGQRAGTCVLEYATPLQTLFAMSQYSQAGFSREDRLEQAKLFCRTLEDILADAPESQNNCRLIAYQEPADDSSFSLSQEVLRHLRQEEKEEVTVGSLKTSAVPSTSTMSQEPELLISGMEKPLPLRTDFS
UniProt Q9P0T7: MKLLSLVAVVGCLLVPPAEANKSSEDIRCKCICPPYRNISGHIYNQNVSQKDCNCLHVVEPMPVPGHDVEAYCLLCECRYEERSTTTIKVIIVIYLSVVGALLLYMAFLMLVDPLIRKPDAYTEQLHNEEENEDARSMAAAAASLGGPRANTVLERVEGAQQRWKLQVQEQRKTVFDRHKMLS
UniProt Q969X1: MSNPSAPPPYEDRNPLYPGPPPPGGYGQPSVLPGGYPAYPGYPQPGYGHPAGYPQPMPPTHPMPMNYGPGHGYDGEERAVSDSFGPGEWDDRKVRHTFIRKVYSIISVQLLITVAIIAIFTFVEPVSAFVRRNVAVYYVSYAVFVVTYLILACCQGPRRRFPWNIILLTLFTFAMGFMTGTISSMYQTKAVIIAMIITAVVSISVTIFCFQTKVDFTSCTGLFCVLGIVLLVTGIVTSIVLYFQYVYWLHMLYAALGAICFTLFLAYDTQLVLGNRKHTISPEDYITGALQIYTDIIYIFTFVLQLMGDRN
UniProt P55061, whole entry, looked up: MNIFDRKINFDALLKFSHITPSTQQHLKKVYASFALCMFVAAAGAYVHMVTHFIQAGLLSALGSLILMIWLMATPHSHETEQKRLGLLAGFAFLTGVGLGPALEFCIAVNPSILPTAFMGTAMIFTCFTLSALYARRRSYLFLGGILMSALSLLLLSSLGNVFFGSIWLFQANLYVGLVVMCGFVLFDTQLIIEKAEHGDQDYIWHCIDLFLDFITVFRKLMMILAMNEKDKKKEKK
UniProt Q9BSA9: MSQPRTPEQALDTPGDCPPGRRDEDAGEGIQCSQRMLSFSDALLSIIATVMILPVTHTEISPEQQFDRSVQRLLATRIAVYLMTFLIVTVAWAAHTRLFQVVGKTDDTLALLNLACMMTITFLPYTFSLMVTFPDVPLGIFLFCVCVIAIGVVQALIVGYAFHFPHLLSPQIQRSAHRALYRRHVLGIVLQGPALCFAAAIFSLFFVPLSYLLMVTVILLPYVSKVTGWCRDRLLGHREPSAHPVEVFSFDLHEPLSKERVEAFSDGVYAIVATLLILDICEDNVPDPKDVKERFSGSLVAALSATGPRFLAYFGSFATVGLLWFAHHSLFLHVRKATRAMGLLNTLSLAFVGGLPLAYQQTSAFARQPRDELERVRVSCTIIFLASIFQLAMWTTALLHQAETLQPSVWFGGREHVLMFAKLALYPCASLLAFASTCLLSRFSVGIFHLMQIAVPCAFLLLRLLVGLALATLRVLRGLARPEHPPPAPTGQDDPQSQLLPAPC
UniProt Q9P0S9: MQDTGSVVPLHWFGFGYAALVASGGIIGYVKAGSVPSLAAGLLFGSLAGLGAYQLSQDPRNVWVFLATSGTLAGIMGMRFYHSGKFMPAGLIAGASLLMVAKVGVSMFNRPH
UniProt Q8NDZ6: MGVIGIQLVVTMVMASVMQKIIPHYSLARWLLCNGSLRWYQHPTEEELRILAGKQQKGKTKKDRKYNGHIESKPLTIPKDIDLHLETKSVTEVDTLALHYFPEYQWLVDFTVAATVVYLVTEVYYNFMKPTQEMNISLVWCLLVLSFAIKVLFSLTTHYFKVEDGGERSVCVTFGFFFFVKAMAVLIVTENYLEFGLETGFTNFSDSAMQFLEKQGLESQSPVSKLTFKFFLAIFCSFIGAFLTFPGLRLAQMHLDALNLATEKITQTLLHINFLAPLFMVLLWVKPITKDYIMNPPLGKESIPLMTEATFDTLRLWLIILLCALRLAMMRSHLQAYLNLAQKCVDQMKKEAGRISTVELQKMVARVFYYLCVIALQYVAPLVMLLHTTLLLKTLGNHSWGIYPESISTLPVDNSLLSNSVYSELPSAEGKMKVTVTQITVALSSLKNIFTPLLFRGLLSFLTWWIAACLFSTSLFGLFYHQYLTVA
UniProt Q86UE8, whole entry, looked up: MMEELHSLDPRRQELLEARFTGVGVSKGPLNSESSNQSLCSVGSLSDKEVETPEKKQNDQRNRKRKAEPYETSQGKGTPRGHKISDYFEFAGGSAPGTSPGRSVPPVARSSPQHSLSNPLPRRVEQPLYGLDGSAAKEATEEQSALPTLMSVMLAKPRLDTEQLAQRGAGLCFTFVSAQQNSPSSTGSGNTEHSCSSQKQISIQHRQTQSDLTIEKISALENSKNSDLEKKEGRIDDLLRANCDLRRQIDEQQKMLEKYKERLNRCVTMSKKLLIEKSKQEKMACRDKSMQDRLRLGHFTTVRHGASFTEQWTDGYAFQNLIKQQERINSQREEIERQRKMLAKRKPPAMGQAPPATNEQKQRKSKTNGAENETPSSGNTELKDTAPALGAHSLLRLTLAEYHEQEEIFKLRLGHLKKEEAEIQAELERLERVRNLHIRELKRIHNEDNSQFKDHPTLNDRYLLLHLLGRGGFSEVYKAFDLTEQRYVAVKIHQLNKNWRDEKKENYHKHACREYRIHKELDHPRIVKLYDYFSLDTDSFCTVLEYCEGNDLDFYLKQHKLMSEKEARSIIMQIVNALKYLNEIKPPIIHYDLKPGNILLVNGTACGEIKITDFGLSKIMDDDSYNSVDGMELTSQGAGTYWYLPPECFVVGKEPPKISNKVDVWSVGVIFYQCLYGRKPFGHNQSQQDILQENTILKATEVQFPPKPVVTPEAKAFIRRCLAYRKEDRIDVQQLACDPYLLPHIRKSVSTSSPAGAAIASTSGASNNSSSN
UniProt Q8NE00: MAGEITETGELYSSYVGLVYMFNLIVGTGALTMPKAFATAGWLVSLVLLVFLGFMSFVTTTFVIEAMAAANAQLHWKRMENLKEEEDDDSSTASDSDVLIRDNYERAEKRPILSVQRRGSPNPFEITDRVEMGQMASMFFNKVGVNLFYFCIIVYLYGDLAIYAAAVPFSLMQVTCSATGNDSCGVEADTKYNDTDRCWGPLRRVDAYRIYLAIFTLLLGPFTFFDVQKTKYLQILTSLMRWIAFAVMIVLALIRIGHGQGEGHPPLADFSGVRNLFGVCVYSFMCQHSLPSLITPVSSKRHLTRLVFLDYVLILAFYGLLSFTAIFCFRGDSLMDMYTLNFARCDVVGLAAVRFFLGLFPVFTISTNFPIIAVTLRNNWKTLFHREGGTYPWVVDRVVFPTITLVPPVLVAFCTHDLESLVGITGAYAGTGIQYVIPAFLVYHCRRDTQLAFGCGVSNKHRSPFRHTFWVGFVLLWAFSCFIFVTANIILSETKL
UniProt Q96I45: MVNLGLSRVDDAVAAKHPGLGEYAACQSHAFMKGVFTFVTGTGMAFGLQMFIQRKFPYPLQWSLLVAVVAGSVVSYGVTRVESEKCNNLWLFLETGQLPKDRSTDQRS
UniProt Q53S58: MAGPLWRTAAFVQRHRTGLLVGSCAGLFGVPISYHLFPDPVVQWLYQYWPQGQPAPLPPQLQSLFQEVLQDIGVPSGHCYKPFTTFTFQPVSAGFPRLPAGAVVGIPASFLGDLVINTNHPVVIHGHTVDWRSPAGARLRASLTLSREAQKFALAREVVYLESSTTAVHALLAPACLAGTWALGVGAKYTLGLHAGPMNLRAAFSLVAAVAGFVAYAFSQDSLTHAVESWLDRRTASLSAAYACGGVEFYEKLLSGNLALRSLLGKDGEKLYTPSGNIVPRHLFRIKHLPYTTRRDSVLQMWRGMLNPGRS
UniProt Q6PL24: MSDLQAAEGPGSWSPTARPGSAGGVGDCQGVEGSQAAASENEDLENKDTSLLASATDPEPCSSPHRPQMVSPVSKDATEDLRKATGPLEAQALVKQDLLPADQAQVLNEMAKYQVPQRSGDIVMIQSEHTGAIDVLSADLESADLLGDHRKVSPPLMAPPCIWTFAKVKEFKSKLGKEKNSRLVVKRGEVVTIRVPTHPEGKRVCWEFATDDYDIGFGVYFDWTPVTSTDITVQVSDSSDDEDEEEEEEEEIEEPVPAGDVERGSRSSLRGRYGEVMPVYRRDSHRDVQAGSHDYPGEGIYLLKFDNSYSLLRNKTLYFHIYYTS
UniProt Q08117: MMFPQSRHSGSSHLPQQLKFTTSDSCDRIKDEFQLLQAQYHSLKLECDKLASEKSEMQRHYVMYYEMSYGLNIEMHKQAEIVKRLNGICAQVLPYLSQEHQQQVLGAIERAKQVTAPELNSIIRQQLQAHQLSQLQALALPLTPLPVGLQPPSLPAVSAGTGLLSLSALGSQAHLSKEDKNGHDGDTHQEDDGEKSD
UniProt Q0VDI3: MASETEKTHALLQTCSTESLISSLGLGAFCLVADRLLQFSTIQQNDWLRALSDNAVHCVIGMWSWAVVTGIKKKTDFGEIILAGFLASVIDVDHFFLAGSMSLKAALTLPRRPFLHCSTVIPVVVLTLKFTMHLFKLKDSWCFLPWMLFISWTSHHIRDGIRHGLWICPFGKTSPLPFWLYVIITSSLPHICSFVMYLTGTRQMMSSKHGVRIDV

What was measured:
Experiment in all cases: log2 fold change, soluble protein after heating vs DMSO (PISA); higher = thermal stabilisation; K562 cells, 10 uM, 30 min; active = over 0.2 and 3.5 SD of the protein, either way, in both replicates (recomputed)
[1] = compound: CC[C@@H]1C(=O)N(C)c2cnc(Nc3ccc(C(=O)NC4CCN(C)CC4)cc3OC)nc2N1C1CCCC1
In short: (§1)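 Thermal stability values are relative to control samples and come from duplicates. They are expressed as log2 fold changes. For measurement, K562 cells (2×10^6 cells/mL) received 10 μM compound for 30 min, and aliquots were heated for 3 min over 48°C-58°C, pooled, and extracted at 4°C in PBS with 0.5% NP-40. Soluble protein, the supernatant after 21,000xg for 90 min, was quantified by TMTpro 16plex LC-MS/MS with equalised channel sums.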

[2] = compound: CC[C@@H]1C(=O)N(C)c2cnc(Nc3ccc(C(=O)N[C@H]4CC[C@H](N5CCN(CC6CC6)CC5)CC4)cc3OC)nc2N1C(C)C [volasertib]
In short: as §1

[3] = compound: CC[C@H](C)N1C=C(C2=C(C=C(C=C21)C3=CN=C(C=C3)N4CCNCC4)C(=O)NCC5=C(C=C(NC5=O)C)C)C
In short: as §1

[4] = compound: CCn1c(C(=O)N(C2CC2)C2CC2)cc2c3c(ncn3C)c(Nc3cc(C)n(C)n3)nc21
In short: as §1

[5] = compound: CCn1cc(-c2ccnc3[nH]c(-c4cccc(CN(C)C)c4)cc23)c(-c2ccc(NC(=O)N(C)C)cc2)n1
In short: as §1

[6] = compound: CN(C)CC(=O)Nc1ccc2[nH]c(=O)c3ccccc3c2c1
In short: as §1

[7] = compound: CN(CCOC1=CC=C(C=C1)C[C@H]2C(=O)NC(=O)S2)C3=CC=CC=N3 (racemic) [rosiglitazone]
In short: as §1

[8] = compound: CN1C2=C(C3=C1C(=O)N(N=C3)CC4=CC(=CC=C4)N)SC(=C2)S(=O)C
In short: as §1

[9] = compound: CN1CCC(CNc2ccc3ncc(-c4cccc(OC(F)(F)F)c4)n3n2)CC1
In short: as §1

[10] = compound: CC[C@H](C)[C@@H](C(=O)N[C@@H]([C@@H](C)O)C(=O)N[C@@H](CC(C)C)C(=O)[C@]1(CO1)C)NC(=O)[C@H]([C@@H](C)CC)N(C)C(=O)C [epoxomicin]
In short: as §1

TMEM167B (UniProt Q9NRX6)
log2 fold change [1]: inactive: 0.031 | log2 fold change [2]: inactive: 0.177 | log2 fold change [3]: inactive: -0.083 | log2 fold change [4]: inactive: -0.048 | log2 fold change [5]: inactive: 0.004 | log2 fold change [6]: inactive: -0.03 | log2 fold change [7]: inactive: -0.009 | log2 fold change [8]: inactive: 0.133 | log2 fold change [9]: inactive: 0.076

TNFAIP8 isoform 4 (UniProt O95379)
log2 fold change [1]: inactive: -0.015 | log2 fold change [2]: inactive: -0.414 | log2 fold change [3]: inactive: 0.053 | log2 fold change [10]: inactive: 0.041 | log2 fold change [5]: inactive: -0.088 | log2 fold change [6]: inactive: 0.022 | log2 fold change [8]: inactive: -0.084 | log2 fold change [9]: inactive: -0.125

TM7SF3 (UniProt Q9NS93)
log2 fold change [1]: inactive: -0.136 | log2 fold change [2]: inactive: -0.178 | log2 fold change [3]: inactive: -0.074 | log2 fold change [8]: inactive: 0.025

TMEM161A (UniProt Q9NX61)
log2 fold change [1]: inactive: 0.033 | log2 fold change [2]: active: -0.477 | log2 fold change [3]: inactive: -0.08 | log2 fold change [10]: inactive: 0.049 | log2 fold change [5]: inactive: 0.014 | log2 fold change [6]: inactive: -0.009 | log2 fold change [8]: inactive: -0.026 | log2 fold change [9]: inactive: -0.265

TLR4 (UniProt O00206)
log2 fold change [1]: inactive: 0.122 | log2 fold change [2]: inactive: 0.001 | log2 fold change [4]: inactive: -0.2 | log2 fold change [5]: inactive: 0.051 | log2 fold change [6]: inactive: -0.046 | log2 fold change [7]: inactive: -0.054 | log2 fold change [8]: inactive: 0.014 | log2 fold change [9]: inactive: -0.179

TMEM106B (UniProt Q9NUM4)
log2 fold change [1]: inactive: 0.025 | log2 fold change [2]: inactive: -0.032 | log2 fold change [3]: inactive: -0.05 | log2 fold change [10]: inactive: -0.11 | log2 fold change [5]: inactive: -0.007 | log2 fold change [6]: inactive: -0.05 | log2 fold change [8]: inactive: 0.012 | log2 fold change [9]: inactive: -0.13

TMEM173 (UniProt Q86WV6)
log2 fold change [1]: inactive: 0.219 | log2 fold change [2]: inactive: 0.156 | log2 fold change [3]: inactive: 0.086 | log2 fold change [10]: inactive: 0.026 | log2 fold change [5]: inactive: -0.017 | log2 fold change [6]: inactive: 0.032 | log2 fold change [8]: inactive: -0.049 | log2 fold change [9]: active: 0.293

TMEM9 (UniProt Q9P0T7)
log2 fold change [1]: inactive: -0.112 | log2 fold change [2]: inactive: -0.07 | log2 fold change [3]: inactive: -0.05 | log2 fold change [10]: active: 0.296 | log2 fold change [5]: inactive: 0.015 | log2 fold change [6]: inactive: 0.004 | log2 fold change [8]: inactive: -0.015 | log2 fold change [9]: inactive: -0.007

TMBIM1 (UniProt Q969X1)
log2 fold change [1]: inactive: 0.086 | log2 fold change [2]: inactive: 0.002 | log2 fold change [3]: inactive: -0.014 | log2 fold change [10]: inactive: -0.033 | log2 fold change [5]: inactive: 0.044 | log2 fold change [6]: inactive: 0.029 | log2 fold change [8]: inactive: -0.035 | log2 fold change [9]: inactive: -0.03

TMBIM6 isoform 2 (UniProt P55061)
log2 fold change [1]: inactive: -0.075 | log2 fold change [2]: inactive: -0.061 | log2 fold change [3]: inactive: -0.041 | log2 fold change [10]: inactive: 0.25 | log2 fold change [6]: inactive: 0.066 | log2 fold change [8]: inactive: -0.007

TMEM181 (UniProt Q9P2C4)
log2 fold change [1]: inactive: -0.121 | log2 fold change [2]: inactive: -0.026 | log2 fold change [4]: inactive: 0.011 | log2 fold change [5]: inactive: -0.07 | log2 fold change [6]: inactive: -0.023 | log2 fold change [7]: inactive: -0.01 | log2 fold change [8]: inactive: 0.079 | log2 fold change [9]: inactive: -0.005

TMEM214 (UniProt Q6NUQ4)
log2 fold change [1]: inactive: -0.023 | log2 fold change [2]: active: -0.246 | log2 fold change [3]: inactive: 0.075 | log2 fold change [10]: inactive: 0.032 | log2 fold change [5]: inactive: -0.023 | log2 fold change [6]: inactive: 0.008 | log2 fold change [8]: inactive: 0.004 | log2 fold change [9]: inactive: 0.148

TMEM175 (UniProt Q9BSA9)
log2 fold change [1]: inactive: 0.128 | log2 fold change [2]: inactive: 0.152 | log2 fold change [4]: inactive: 0.039 | log2 fold change [8]: inactive: -0.013

TMEM14C (UniProt Q9P0S9)
log2 fold change [1]: inactive: 0.021 | log2 fold change [2]: inactive: 0.16 | log2 fold change [3]: inactive: -0.033 | log2 fold change [4]: inactive: 0.098 | log2 fold change [5]: inactive: -0.06 | log2 fold change [6]: inactive: 0.105 | log2 fold change [7]: inactive: -0.015 | log2 fold change [8]: inactive: -0.118 | log2 fold change [9]: inactive: 0.021

TMEM161B (UniProt Q8NDZ6)
log2 fold change [1]: inactive: -0.028 | log2 fold change [2]: inactive: -0.038 | log2 fold change [3]: inactive: 0.062 | log2 fold change [10]: inactive: 0.058 | log2 fold change [5]: inactive: 0.02 | log2 fold change [6]: inactive: 0.079 | log2 fold change [8]: inactive: -0.068 | log2 fold change [9]: inactive: -0.186

TM9SF4 (UniProt Q92544)
log2 fold change [1]: inactive: -0.225 | log2 fold change [2]: active: -0.484 | log2 fold change [3]: inactive: 0.024 | log2 fold change [10]: inactive: -0.055 | log2 fold change [5]: inactive: 0.052 | log2 fold change [6]: inactive: 0.001 | log2 fold change [8]: inactive: -0.05 | log2 fold change [9]: inactive: -0.084

TLK2 isoform 2 (UniProt Q86UE8)
log2 fold change [1]: inactive: -0.015 | log2 fold change [2]: inactive: -0.112 | log2 fold change [3]: inactive: 0.029 | log2 fold change [10]: inactive: -0.01 | log2 fold change [5]: inactive: -0.024 | log2 fold change [6]: inactive: -0.012 | log2 fold change [8]: inactive: -0.039 | log2 fold change [9]: inactive: -0.054

TMEM104 (UniProt Q8NE00)
log2 fold change [1]: inactive: -0.019 | log2 fold change [2]: inactive: 0.043 | log2 fold change [3]: inactive: -0.033 | log2 fold change [10]: inactive: -0.19 | log2 fold change [5]: inactive: 0.204 | log2 fold change [8]: inactive: 0.12 | log2 fold change [9]: inactive: 0.018

TMC6 (UniProt Q7Z403)
log2 fold change [1]: inactive: 0.011 | log2 fold change [2]: inactive: -0.175 | log2 fold change [3]: inactive: -0.216 | log2 fold change [4]: inactive: -0.138 | log2 fold change [5]: inactive: 0.109 | log2 fold change [6]: inactive: -0.031 | log2 fold change [8]: inactive: 0.158 | log2 fold change [9]: inactive: -0.184

TMEM141 (UniProt Q96I45)
log2 fold change [1]: inactive: 0.001 | log2 fold change [2]: inactive: 0.077 | log2 fold change [3]: inactive: -0.017 | log2 fold change [4]: inactive: -0.006 | log2 fold change [5]: inactive: -0.166 | log2 fold change [6]: inactive: 0.031 | log2 fold change [7]: inactive: -0.038 | log2 fold change [8]: inactive: 0.092 | log2 fold change [9]: inactive: -0.195

TMEM177 (UniProt Q53S58)
log2 fold change [1]: inactive: -0.092 | log2 fold change [2]: inactive: 0.051 | log2 fold change [3]: inactive: 0.047 | log2 fold change [10]: inactive: -0.052 | log2 fold change [5]: inactive: 0.048 | log2 fold change [6]: inactive: 0.219 | log2 fold change [8]: inactive: -0.103 | log2 fold change [9]: inactive: -0.075

TMED8 (UniProt Q6PL24)
log2 fold change [1]: inactive: -0.019 | log2 fold change [2]: inactive: -0.155 | log2 fold change [3]: inactive: -0.107 | log2 fold change [4]: inactive: 0.033 | log2 fold change [5]: inactive: -0.071 | log2 fold change [6]: inactive: 0.064 | log2 fold change [7]: inactive: 0.095 | log2 fold change [8]: inactive: 0.075 | log2 fold change [9]: inactive: -0.25

TLE5 isoform 2 (UniProt Q08117)
log2 fold change [1]: inactive: 0.092 | log2 fold change [2]: inactive: 0.022 | log2 fold change [3]: inactive: -0.028 | log2 fold change [5]: inactive: 0.017 | log2 fold change [6]: inactive: -0.015 | log2 fold change [8]: inactive: -0.063 | log2 fold change [9]: inactive: 0.092

TMEM267 (UniProt Q0VDI3)
log2 fold change [1]: inactive: -0.035 | log2 fold change [2]: inactive: -0.06 | log2 fold change [4]: inactive: -0.056 | log2 fold change [5]: inactive: -0.14 | log2 fold change [6]: inactive: -0.123 | log2 fold change [7]: inactive: -0.161 | log2 fold change [9]: inactive: 0.008
